According to US9181288B2, “Azepane derivatives and methods of treating hepatitis B infections” (Novira Therapeutics, Inc., priority 2014, dated 2015):
At least one compound was matched to its structure with a doubt left.

Chains of the proteins cited; added tags and fusions are not shown. Residues count along the entry.
UniProt P03147, 1-150 C48A/C61A/C107A/R150C: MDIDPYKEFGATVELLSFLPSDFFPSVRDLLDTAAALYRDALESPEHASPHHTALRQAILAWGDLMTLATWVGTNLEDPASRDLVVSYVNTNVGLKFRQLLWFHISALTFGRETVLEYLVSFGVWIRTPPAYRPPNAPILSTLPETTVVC

Target: HBV C150Bo capsid protein (mutant C150 HBV core protein labeled with BODIPY-FL) (Hepatitis B virus genotype D subtype adw, UniProt P03147, C107A/C48A/C61A/R150C)
Assay: HBV assembly assay (fluorescence quenching in vitro capsid assembly)
Assay type: biochemical
Settings: at about 10 μM; 50 mM Hepes pH 7.5, 150 mM NaCl, 1 hour room temperature

O=C(Nc1ccc(F)c(Cl)c1)c1ccc(F)c(S(=O)(=O)N2CCCC(O)C(O)C2)c1 (stereo not shown) [Compound 1909]
Activity (HBV assembly assay): + (‘+’ indicates >50% activity at about 10 μM)
